{"source": "patent US20220322709A1", "about": "“METHODS AND COMPOSITIONS FOR IMPROVED TASTE QUALITY” (ALMENDRA PTE. LTD., priority 2021, published 2022)", "format_in_all_cases": "in vivo, human", "key": {"[1]": {"assay": "Sweetness Linger standards of the sensory testing methodology", "settings": "10% Sucrose and 500 PPM REBA, in water, perceived sweetness intensity @ 120 sec"}, "[2]": {"assay": "Bitterness of L-Tryptophan in pH 3.2 citric acid buffer with and without taste modulator (tasting)"}, "[3]": {"assay": "Bitterness of L-Phenylalanine in pH 3.2 citric acid buffer with and without taste modulator (tasting)", "settings": "estimated"}}, "note": "A unit is not stated for every read-out."}
{"smiles": "C=C1C[C@@]23CC[C@H]4[C@@](C)(CCC[C@@]4(C)C(=O)O[C@@H]4O[C@H](CO)[C@@H](O)[C@H](O)[C@H]4O)[C@@H]2CC[C@]1(O[C@@H]1O[C@H](CO)[C@@H](O)[C@H](O[C@@H]2O[C@H](CO)[C@@H](O)[C@H](O)[C@H]2O)[C@H]1O[C@@H]1O[C@H](CO)[C@@H](O)[C@H](O)[C@H]1O)C3", "note": "[REBA]", "values": [{"measurement": "SL (Sweetness Linger)", "setting": "[1]", "result": 5}]}
{"smiles": "N[C@@H](Cc1c[nH]c2ccccc12)C(=O)O", "note": "[L-Trp, L-Tryptophan]", "values": [{"measurement": "bitterness intensity", "setting": "[2]; 7.5 mM L-Trp solution in CAB, 0-15 intensity scale, estimated", "result": 5}, {"measurement": "onset and linger of bitterness", "setting": "[2]; L-Trp in CAB", "result": "noticeably slow in onset and quite lingering"}, {"measurement": "Bitter Taste Threshold in CAB", "setting": "[2]; pH 3.2 Citric Acid Buffer, serial dilutions 30 mM to 1.88 mM tasted in ascending order, estimated", "result": "ca. 3 mM"}]}
{"smiles": "OC[C@H]1O[C@@](CO)(O[C@H]2O[C@H](CO)[C@@H](O)[C@H](O)[C@H]2O)[C@@H](O)[C@@H]1O", "note": "[Sucrose]", "values": [{"measurement": "SL (Sweetness Linger)", "setting": "[1]", "result": 0}]}
{"smiles": "N[C@@H](Cc1ccccc1)C(=O)O", "note": "[L-Phe, L-Phenylalanine]", "values": [{"measurement": "bitterness intensity", "setting": "[3]; 7.5 mM L-Phe solution in CAB, 0-15 intensity scale", "result": 5}, {"measurement": "Bitter Taste Threshold in CAB", "setting": "[3]; pH 3.2 Citric Acid Buffer, serial dilutions 30 mM to 1.88 mM tasted in ascending order", "result": "ca. 3 mM"}]}
